This is one part of the list.
Assay: reversal of MRP1-mediated doxorubicin resistance, pilot screen, H69AR cells, doxorubicin co-treatment (AID 601)
Details: H69AR cells + 2 uM doxorubicin, CellTiter-Glo, 72 h; measured here: viability with 2 uM doxorubicin; at 10 µM; stronger effect = lower value
In the case of `Fc1ccccc1NC1CCN(Cc2ccccc2)CC1`, the viability is reported as 78.9%.

Reference: PubChem BioAssay AID601 (SRMLSC, 2007)
